Results from article doi:10.1101/765990 (bioRxiv, 2019).
Results are given in words; binding and its absence hold for the method and conditions named. For some assays here: Binding seen in cells or lysates may run through a third protein. Some results given as binding are weak or reduced against the parent protein; the word gives no strength. For some assays here: Where a sequence is shown, tags or fusion partners need not be part of it.

Chains of the proteins cited; added tags and fusions are not shown. Lines headed by an entry give the natural chain unless they say otherwise; changes in a name come on top.
UniProt Q01590: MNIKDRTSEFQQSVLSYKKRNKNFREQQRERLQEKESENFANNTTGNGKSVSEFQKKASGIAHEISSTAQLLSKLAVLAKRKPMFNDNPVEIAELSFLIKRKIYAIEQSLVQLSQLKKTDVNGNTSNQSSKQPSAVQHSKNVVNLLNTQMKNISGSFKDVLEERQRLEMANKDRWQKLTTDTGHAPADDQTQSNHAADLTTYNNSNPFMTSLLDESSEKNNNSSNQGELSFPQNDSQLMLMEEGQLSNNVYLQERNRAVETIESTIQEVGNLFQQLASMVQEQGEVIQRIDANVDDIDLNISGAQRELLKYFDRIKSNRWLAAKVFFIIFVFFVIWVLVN

What was measured:
[1] = target: Sed5p SNARE-motif (amino acids 211-320) L272P (budding yeast) (UniProt Q01590); assay: native gel or EMSA
[2] = target: Sed5p SNARE-motif (amino acids 211-320) L276P (budding yeast) (UniProt Q01590); assay: native gel or EMSA
[3] = target: Sed5p (BiFC fusion in yeast cells) (budding yeast) (UniProt Q01590); assay: split reporter

Molecule | binding [1] | binding [2] | binding [3]
Sed5p Habc domain (amino acids 1-210) (from UniProt Q01590 1-210) (domain or fragment) | no binding | no binding | 
Sly1p (BiFC fusion in yeast cells) (protein, UniProt P22213 1-666) MAVEEIASRKDISLRDMQISAILKMLFLNKDLNNNDNITTITDDIFNQQEIIWKVLILDIKSTATISSVLRVNDLLKAGITVHSLIKQDRSPLPDVPAIYFVSPTKENIDIIVNDLKSDKYSEFYINFTSSLPRNLLEDLAQQVSITGKSDKIKQVYDQYLDFIVTEPELFSLEISNAYLTLNDPKTTEEEITGLCANIADGLFNTVLTINSIPIIRAAKGGPAEIIAEKLGTKLRDFVINTNSSSTSTLQGNDSLERGVLIILDRNIDFASMFSHSWIYQCMVFDIFKLSRNTVTIPLESKENGTDNTTAKPLATKKYDIEPNDFFWMENSHLPFPEAAENVEAALNTYKEEAAEITRKTGVTNISDLDPNSNNDTVQIQEVVKKLPELTAKKNTIDTHMNIFAALLSQLESKSLDTFFEVEQDPGSTKTRSRFLDILKDGKTNNLEDKLRSFIVLYLTSTTGLPKDFVQNVENYFKENDYDINALKYVYKLREFMQLSNMSLQNKSLEDGSDSAFKPSNLTLSGIYGLTEGKLQGGVGSLISGIKKLLPEKKTIPITNVVDAIMDPLNSSQKNLETTDSYLYIDPKITRGSHTRKPKRQSYNKSLVFVVGGGNYLEYQNLQEWAHSQLHNPKKVMYGSTAITTPAEFLNEISRLGASNSSNNDA |  |  | binds
sly1p (L140K) (BiFC fusion in yeast cells) (protein, UniProt P22213 1-666) MAVEEIASRKDISLRDMQISAILKMLFLNKDLNNNDNITTITDDIFNQQEIIWKVLILDIKSTATISSVLRVNDLLKAGITVHSLIKQDRSPLPDVPAIYFVSPTKENIDIIVNDLKSDKYSEFYINFTSSLPRNLLEDKAQQVSITGKSDKIKQVYDQYLDFIVTEPELFSLEISNAYLTLNDPKTTEEEITGLCANIADGLFNTVLTINSIPIIRAAKGGPAEIIAEKLGTKLRDFVINTNSSSTSTLQGNDSLERGVLIILDRNIDFASMFSHSWIYQCMVFDIFKLSRNTVTIPLESKENGTDNTTAKPLATKKYDIEPNDFFWMENSHLPFPEAAENVEAALNTYKEEAAEITRKTGVTNISDLDPNSNNDTVQIQEVVKKLPELTAKKNTIDTHMNIFAALLSQLESKSLDTFFEVEQDPGSTKTRSRFLDILKDGKTNNLEDKLRSFIVLYLTSTTGLPKDFVQNVENYFKENDYDINALKYVYKLREFMQLSNMSLQNKSLEDGSDSAFKPSNLTLSGIYGLTEGKLQGGVGSLISGIKKLLPEKKTIPITNVVDAIMDPLNSSQKNLETTDSYLYIDPKITRGSHTRKPKRQSYNKSLVFVVGGGNYLEYQNLQEWAHSQLHNPKKVMYGSTAITTPAEFLNEISRLGASNSSNNDA |  |  | binds
sly1p (L140K, I153K) (BiFC fusion in yeast cells) (protein, UniProt P22213 1-666) MAVEEIASRKDISLRDMQISAILKMLFLNKDLNNNDNITTITDDIFNQQEIIWKVLILDIKSTATISSVLRVNDLLKAGITVHSLIKQDRSPLPDVPAIYFVSPTKENIDIIVNDLKSDKYSEFYINFTSSLPRNLLEDKAQQVSITGKSDKKKQVYDQYLDFIVTEPELFSLEISNAYLTLNDPKTTEEEITGLCANIADGLFNTVLTINSIPIIRAAKGGPAEIIAEKLGTKLRDFVINTNSSSTSTLQGNDSLERGVLIILDRNIDFASMFSHSWIYQCMVFDIFKLSRNTVTIPLESKENGTDNTTAKPLATKKYDIEPNDFFWMENSHLPFPEAAENVEAALNTYKEEAAEITRKTGVTNISDLDPNSNNDTVQIQEVVKKLPELTAKKNTIDTHMNIFAALLSQLESKSLDTFFEVEQDPGSTKTRSRFLDILKDGKTNNLEDKLRSFIVLYLTSTTGLPKDFVQNVENYFKENDYDINALKYVYKLREFMQLSNMSLQNKSLEDGSDSAFKPSNLTLSGIYGLTEGKLQGGVGSLISGIKKLLPEKKTIPITNVVDAIMDPLNSSQKNLETTDSYLYIDPKITRGSHTRKPKRQSYNKSLVFVVGGGNYLEYQNLQEWAHSQLHNPKKVMYGSTAITTPAEFLNEISRLGASNSSNNDA |  |  | no binding
